Measurements from publication PMC11530556.
Results are given in words; binding and its absence hold for the method and conditions named.

Target: full-length Titin N2B unique sequence (N2B-us) single-molecule construct, 6His-Avi-2I27-N2B-2I27-Spy (human)
Experiment: magnetic tweezers single-molecule manipulation; single-molecule binding assay with other LIM domain proteins (Fig. S13); construct, concentration and conditions not told in the text shown

Row | binding | Binder
1 | no binding | LIM domain only protein 3 (LMO3) (protein, UniProt Q8TAP4 1-145) MLSVQPDTKPKGCAGCNRKIKDRYLLKALDKYWHEDCLKCACCDCRLGEVGSTLYTKANLILCRRDYLRLFGVTGNCAACSKLIPAFEMVMRAKDNVYHLDCFACQLCNQRFCVGDKFFLKNNMILCQTDYEEGLMKEGYAPQVR
2 | no binding | LIM/homeobox protein2 (LHX2) (protein, UniProt P50458 1-406) MLFHSLSGPEVHGVIDEMDRRAKSEAPAISSAIDRGDTETTMPSISSDRAALCAGCGGKISDRYYLLAVDKQWHMRCLKCCECKLNLESELTCFSKDGSIYCKEDYYRRFSVQRCARCHLGISASEMVMRARDLVYHLNCFTCTTCNKMLTTGDHFGMKDSLVYCRLHFEALLQGEYPAHFNHADVAAAAAAAAAAKSAGLGAAGANPLGLPYYNGVGTVQKGRPRKRKSPGPGADLAAYNAALSCNENDAEHLDRDQPYPSSQKTKRMRTSFKHHQLRTMKSYFAINHNPDAKDLKQLAQKTGLTKRVLQVWFQNARAKFRRNLLRQENTGVDKSTDAALQTGTPSGPASELSNASLSPSSTPTTLTDLTSPTLPTVTSVLTSVPGNLEGHEPHSPSQTTLTNLF
